PubChem BioAssay AID1259405 | NCATS | 2018
Shown is a random part of about 50,000 reagents. About 4,000 of all reagents (8%) count as active. 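Mouse siRNA library applied to hamster cells; one well for each siRNA.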 Reagents against one gene are numbered here. Reagent sequences are not shown.

Purpose: 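Mouse-designed siRNAs used to find CHO productivity engineering targets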 (primary screen)
Cell system: Chinese hamster CHO-K1 ovary cells with stable secreted eGFP expression
Knock-down reagent: single siRNA against mouse genes, 0.8 pmol siRNA per well (2 µl of 400 nM stock)
Duration: 3 days
Measurement: 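Per-well intracellular GFP measured by laser scanning cytometry, plus viability from ATP luminescence, each relative to plate median of non-targeting control wells, in %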
Scale: GFP, % of control: higher = more GFP per well, higher productivity; viability (ATP), % of control: higher = more viable cells (more ATP)
Active means: 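Called active when intracellular GFP, relative to negative control, is at or above 120%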

target gene	siRNA no.	GFP, % of control	viability (ATP), % of control	Outcome
Tafa4	1	86.5	63.2	inactive
Tafa4	2	74.4	87.9	inactive
Tafa4	3	123	119	active
Lctl	1	96.4	107	inactive
Lctl	2	45.7	85.8	inactive
Lctl	3	66.4	74	inactive
Or4k5	1	157	58.9	active
Or4k5	2	46.9	31	inactive
Or4k5	3	69.9	105	inactive
Gas6	1	94.5	78.8	inactive
Gas6	2	152	128	active
Gas6	3	82.7	94.4	inactive
Kcna5	1	90.8	86	inactive
Kcna5	2	127	92.1	active
Kcna5	3	50.4	73.2	inactive
Vsig1	1	44.3	61.4	inactive
Vsig1	2	58.3	37.5	inactive
Vsig1	3	71.7	72.5	inactive
Mterf1a	1	109	87.9	inactive
Mterf1a	2	77.6	79.7	inactive
Mterf1a	3	75.8	61.5	inactive
Fam168a	1	69	64.8	inactive
Fam168a	2	77.8	75.3	inactive
Fam168a	3	103	76.8	inactive
Zim1	1	33.3	38.6	inactive
Zim1	2	71.1	92.2	inactive
Zim1	3	91.5	85.3	inactive
1700001J03Rik	1	62.8	46	inactive
1700001J03Rik	2	110	92.3	inactive
1700001J03Rik	3	88.9	87.9	inactive
Gabrq	1	107	130	inactive
Gabrq	2	52.1	58.8	inactive
Gabrq	3	33.2	38.7	inactive
Hs3st3b1	1	59.4	53	inactive
Hs3st3b1	2	31.1	43.6	inactive
Hs3st3b1	3	68.9	92.7	inactive
Lzts3	1	43	34.7	inactive
Lzts3	2	45.4	76.2	inactive
Lzts3	3	133	83.8	active
Ehhadh	1	80.8	78.1	inactive
Ehhadh	2	64.3	68.1	inactive
Ehhadh	3	104	64.3	inactive
2410137M14Rik	1	49.4	62.9	inactive
2410137M14Rik	2	82	89.4	inactive
2410137M14Rik	3	90.5	65	inactive
Fam169b	1	54.4	82.8	inactive
Fam169b	2	98.4	59.8	inactive
Fam169b	3	45.8	44.6	inactive
Or4a2	1	95.4	74.7	inactive
Or4a2	2	37.1	51.9	inactive
Or4a2	3	61.1	56.6	inactive
Acsm4	1	35.6	50	inactive
Acsm4	2	71.6	91.1	inactive
Acsm4	3	54.3	55.2	inactive
Parp1	1	65.3	62.2	inactive
Parp1	2	128	123	active
Parp1	3	72.8	83.8	inactive
Ca1	1	79	85	inactive
Ca1	2	63.6	54.7	inactive
Qprt	1	55.7	126	inactive
Qprt	2	85.5	87.4	inactive
Msi2	1	58.7	71	inactive
Msi2	2	104	58.4	inactive
Msi2	3	83.9	98.7	inactive
Nkapd1	1	66.7	48.8	inactive
Nkapd1	2	99.1	78.5	inactive
Nkapd1	3	90.9	99.7	inactive
Opcml	1	74.6	73.3	inactive
Opcml	2	49.1	57	inactive
Opcml	3	108	104	inactive
Fbxw5	1	54.9	76.3	inactive
Fbxw5	2	134	89.6	active
Fbxw5	3	136	72.2	active
Nlrp4a	1	83.2	79.7	inactive
Nlrp4a	2	59.2	48.4	inactive
Nlrp4a	3	77.8	61.9	inactive
Mettl14	1	46.6	56.7	inactive
Mettl14	2	56.7	79.4	inactive
Mettl14	3	120	90.5	active
Drc4	1	50.4	85	inactive
Drc4	2	56	75.5	inactive
Drc4	3	56.6	29.3	inactive
Cul2	1	98.2	106	inactive
Cul2	2	146	81.8	active
Cul2	3	74.3	84.4	inactive
Acsl4	1	104	101	inactive
Acsl4	2	56.7	66	inactive
Acsl4	3	44	57.9	inactive
Apba1	1	52.2	97.9	inactive
Apba1	2	99.7	82	inactive
Ptgdr2	1	92.1	70.7	inactive
Ptgdr2	2	92	82.8	inactive
Ptgdr2	3	84.4	80.6	inactive
Hoxa2	1	88.9	105	inactive
Hoxa2	2	93.1	116	inactive
Hoxa2	3	51	63.1	inactive
Cdk18	1	83.6	87.9	inactive
Cdk18	2	58.7	39	inactive
Cdk18	3	74.7	75.4	inactive
Mad2l2	1	81.1	69.2	inactive
Mad2l2	2	35.6	48.3	inactive
Mad2l2	3	52.1	87.1	inactive
Snap23	1	77.8	70.4	inactive
Snap23	2	76.6	57.2	inactive
Casq1	1	70	68.4	inactive
Casq1	2	62.6	72.9	inactive
Acvr1	1	60.1	82.2	inactive
